Assay in all cases: ReLo
Experiment [1] concerns the target T1, BoYb NTD_MUT (Drosophila) (UniProt Q9VNP5).
T1 sequence: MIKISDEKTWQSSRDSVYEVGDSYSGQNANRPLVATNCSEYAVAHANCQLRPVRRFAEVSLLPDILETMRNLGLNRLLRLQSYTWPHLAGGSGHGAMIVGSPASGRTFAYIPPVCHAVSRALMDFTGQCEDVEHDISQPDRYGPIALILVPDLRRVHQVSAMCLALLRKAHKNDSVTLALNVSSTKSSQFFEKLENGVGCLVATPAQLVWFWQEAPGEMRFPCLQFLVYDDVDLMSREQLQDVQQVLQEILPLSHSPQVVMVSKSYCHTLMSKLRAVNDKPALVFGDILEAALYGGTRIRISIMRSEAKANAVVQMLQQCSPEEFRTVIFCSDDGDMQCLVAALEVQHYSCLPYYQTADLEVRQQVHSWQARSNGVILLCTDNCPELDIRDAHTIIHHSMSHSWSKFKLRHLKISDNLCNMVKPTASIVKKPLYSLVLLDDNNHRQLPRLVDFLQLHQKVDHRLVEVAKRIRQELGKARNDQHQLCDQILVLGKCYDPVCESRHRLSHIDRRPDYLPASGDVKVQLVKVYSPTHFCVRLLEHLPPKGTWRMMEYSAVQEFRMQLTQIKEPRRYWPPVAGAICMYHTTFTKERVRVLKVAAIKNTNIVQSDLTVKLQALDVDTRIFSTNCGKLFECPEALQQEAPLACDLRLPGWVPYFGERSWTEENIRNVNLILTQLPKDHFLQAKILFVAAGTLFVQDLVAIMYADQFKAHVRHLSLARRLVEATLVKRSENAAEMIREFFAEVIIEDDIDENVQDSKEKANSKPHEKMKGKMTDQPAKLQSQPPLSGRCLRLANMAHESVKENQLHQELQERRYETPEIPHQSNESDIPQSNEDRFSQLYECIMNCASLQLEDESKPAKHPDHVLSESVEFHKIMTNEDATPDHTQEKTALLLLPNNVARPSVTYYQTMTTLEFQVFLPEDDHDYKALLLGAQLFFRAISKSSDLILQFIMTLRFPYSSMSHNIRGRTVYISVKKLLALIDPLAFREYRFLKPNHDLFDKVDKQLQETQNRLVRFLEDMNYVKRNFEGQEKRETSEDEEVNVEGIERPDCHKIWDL

For a further experiment, the target named is T2, Krimper (Drosophila) (UniProt A1ZAC4).
T2 sequence: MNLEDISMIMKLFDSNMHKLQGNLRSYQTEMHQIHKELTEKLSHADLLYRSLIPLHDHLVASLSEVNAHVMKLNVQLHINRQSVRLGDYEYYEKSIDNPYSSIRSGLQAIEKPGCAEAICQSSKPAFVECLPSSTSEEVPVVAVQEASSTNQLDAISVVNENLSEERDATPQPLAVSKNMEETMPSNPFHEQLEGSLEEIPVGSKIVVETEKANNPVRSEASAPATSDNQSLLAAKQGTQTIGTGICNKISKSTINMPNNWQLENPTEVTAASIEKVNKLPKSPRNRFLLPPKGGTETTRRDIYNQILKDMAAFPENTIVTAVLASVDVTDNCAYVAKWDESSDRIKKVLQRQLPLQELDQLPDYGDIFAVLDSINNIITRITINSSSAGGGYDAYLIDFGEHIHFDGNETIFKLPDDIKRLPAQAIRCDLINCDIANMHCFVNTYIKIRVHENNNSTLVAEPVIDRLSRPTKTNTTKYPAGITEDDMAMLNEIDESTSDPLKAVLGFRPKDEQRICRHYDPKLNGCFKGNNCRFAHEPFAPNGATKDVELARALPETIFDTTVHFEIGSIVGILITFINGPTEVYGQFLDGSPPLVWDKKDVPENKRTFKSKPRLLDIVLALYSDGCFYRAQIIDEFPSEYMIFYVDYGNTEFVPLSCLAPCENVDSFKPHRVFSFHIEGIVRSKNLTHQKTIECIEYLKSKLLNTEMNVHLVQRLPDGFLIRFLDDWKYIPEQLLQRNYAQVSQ

In another experiment the target is T3, Papi (Drosophila) (UniProt Q9VQ91).
T3 sequence: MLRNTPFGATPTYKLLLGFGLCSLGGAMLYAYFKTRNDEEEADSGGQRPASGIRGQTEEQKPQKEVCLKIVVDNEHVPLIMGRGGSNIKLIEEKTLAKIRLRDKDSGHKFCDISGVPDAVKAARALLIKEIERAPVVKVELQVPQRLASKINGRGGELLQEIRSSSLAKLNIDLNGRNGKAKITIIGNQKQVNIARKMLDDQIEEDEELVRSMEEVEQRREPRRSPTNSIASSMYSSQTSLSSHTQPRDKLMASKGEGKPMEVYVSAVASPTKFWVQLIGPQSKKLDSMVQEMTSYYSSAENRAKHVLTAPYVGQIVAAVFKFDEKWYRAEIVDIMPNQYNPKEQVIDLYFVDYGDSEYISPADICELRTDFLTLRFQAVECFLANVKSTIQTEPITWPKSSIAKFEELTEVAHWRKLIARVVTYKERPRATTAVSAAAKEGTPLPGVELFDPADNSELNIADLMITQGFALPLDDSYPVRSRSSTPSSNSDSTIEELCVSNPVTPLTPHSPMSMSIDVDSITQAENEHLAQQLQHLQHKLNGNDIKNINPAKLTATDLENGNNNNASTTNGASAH

No constants are given. Whether binding was seen depends on the method and setting. Some binding calls cover weakened binding; strength is not graded here.

B1: Vret-N (domain or fragment, UniProt Q9VCU7 1-178)
chain: MESESSQDDWSAFDPMSREYYDQVGNRYTNESGQKLIMEAPLPPKDEKEQRATRQAKYPYLVVPKSSPYVTEKMLINFFGRALIKEMEFRRLSRVYFVYFENIASLETAQQRVQRYPNLIKCITGRPQKEREITSDPVTSTEPMPTPGPAISATERTPVNHNREVPISTGGQNHPEFF
Turning to B1, the binding result in experiment [1] is recorded as “no binding”.

B2: Argonaute 3 (protein, UniProt Q7PLK0 1-867)
chain: MSGRGNLLSLFNKNAGNMGKSISSKDHEIDSGLDFNNSESSGERLLSSHNIETDLITTLQHVNISVGRGRARLIDTLKTDDHTSNQFITSESKENITKKTKGPESEAIASENGLFFPDLIYGSKGSSVNIYCNYLKLTTDESKGVFNYEVRFFPPIDSVHLRIKYLNDHKDKLGGTKTFDGNTLYLPILLPNKMTVFISKAEDVELQIRILYKKKEEMRNCTQLYNILFDRVMKVLNYVKFDRKQFDPSRPKIIPLAKLEVWPGYVTAVDEYKGGLMLCCDVSHRILCQKTVLEMLVDLYQQNVEHYQESARKMLVGNIVLTRYNNRTYKINDICFDQNPTCQFEIKTGCTSYVEYYKQYHNINIKDVNQPLIYSIKKSRGIPAERENLQFCLIPELCYLTGLRDEVRSDNKLMREIATFTRVSPNQRQMALNKFYENVSNTPAAQEILNSWGLSLTNNSNKISGRQMDIEQIYFSKISVSAGRSAEFSKHAVTNEMLKVVHLSKWIIIHLRNYRQAATSLLDNMKQACESLGMNISNPTMISLDHDRIDAYIQALRRNITMNTQMVVCICHNRRDDRYAAIKKICCSEIPIPSQVINAKTLQNDLKIRSVVQKIVLQMNCKLGGSLWTVKIPFKNVMICGIDSYHDPSNRGNSVAAFVASINSSYSQWYSKAVVQTKREEIVNGLSASFEIALKMYRKRNGKLPTNIIIYRDGIGDGQLYTCLNYEIPQFEMVCGNRIKISYIVVQKRINTRIFSGSGIHLENPLPGTVVDQHITKSNMYDFFLVSQLVRQGTVTPTHYVVLRDDCNYGPDIIQKLSYKLCFLYYNWAGTVRIPACCMYAHKLAYLIGQSIQRDVAEALSEKLFYL
As to B2, the binding entry with Krimper (Drosophila) is “binds”; with Papi (Drosophila), “no binding”.

B3: Piwi (protein, UniProt Q9VKM1 1-843)
chain: MADDQGRGRRRPLNEDDSSTSRGSGDGPRVKVFRGSSSGDPRADPRIEASRERRALEEAPRREGGPTERKPWGDQYDYLNTRPAELVSKKGTDGVPVMLQTNFFRLKTKPEWRIVHYHVEFEPSIENPRVRMGVLSNHANLLGSGYLFDGLQLFTTRKFEQEITVLSGKSKLDIEYKISIKFVGFISCAEPRFLQVLNLILRRSMKGLNLELVGRNLFDPRAKIEIREFKMELWPGYETSIRQHEKDILLGTEITHKVMRTETIYDIMRRCSHNPARHQDEVRVNVLDLIVLTDYNNRTYRINDVDFGQTPKSTFSCKGRDISFVEYYLTKYNIRIRDHNQPLLISKNRDKALKTNASELVVLIPELCRVTGLNAEMRSNFQLMRAMSSYTRMNPKQRTDRLRAFNHRLQNTPESVKVLRDWNMELDKNVTEVQGRIIGQQNIVFHNGKVPAGENADWQRHFRDQRMLTTPSDGLDRWAVIAPQRNSHELRTLLDSLYRAASGMGLRIRSPQEFIIYDDRTGTYVRAMDDCVRSDPKLILCLVPNDNAERYSSIKKRGYVDRAVPTQVVTLKTTKNRSLMSIATKIAIQLNCKLGYTPWMIELPLSGLMTIGFDIAKSTRDRKRAYGALIASMDLQQNSTYFSTVTECSAFDVLANTLWPMIAKALRQYQHEHRKLPSRIVFYRDGVSSGSLKQLFEFEVKDIIEKLKTEYARVQLSPPQLAYIVVTRSMNTRFFLNGQNPPPGTIVDDVITLPERYDFYLVSQQVRQGTVSPTSYNVLYSSMGLSPEKMQKLTYKMCHLYYNWSGTTRVPAVCQYAKKLATLVGTNLHSIPQNALEKKFYYL
Consider B3, for which the binding entry with Papi (Drosophila) is reported as “binds”.

Source of the values: doi:10.1101/2024.05.31.596839.
